Measurements published in US11596692B1 (Incyte Corporation, priority 2018, dated 2023).
At least one compound was matched to its structure with a doubt left.

Sequences of proteins named here, by UniProt entry; tags and fusion partners are left off. Residues count along the entry.
UniProt Q9NZQ7, 19-290: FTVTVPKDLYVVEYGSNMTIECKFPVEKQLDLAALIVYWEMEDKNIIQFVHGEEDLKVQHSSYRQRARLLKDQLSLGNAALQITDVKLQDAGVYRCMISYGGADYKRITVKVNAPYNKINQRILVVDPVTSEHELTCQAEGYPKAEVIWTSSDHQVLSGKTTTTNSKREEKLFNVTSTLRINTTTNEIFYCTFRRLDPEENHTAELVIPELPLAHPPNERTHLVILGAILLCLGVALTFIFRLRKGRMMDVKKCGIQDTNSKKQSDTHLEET

How the values were obtained:
PD-L1 [1] = biological target: T1, PD-L1 (Homo sapiens (Human), UniProt Q9NZQ7); assay: PD-L1 surface levels on HEK293T STING reporter cells, high PD-L1; type: cell-based; conditions: read-out: PD-L1 Internalization IC50 (nM), High PD-L1, 20 hours
Protocol: (§1) To determine PD-L1 expression on HEK cells after treatment of PD-L1-small molecule conjugated STING agonists, cells were harvested at 20 hours post-treatment. Single cell suspensions were then stained with phycoerythrin-conjugated anti-PD-L1 antibody (BD Bioscience), and the PD-L1 expression were then analyzed by flow cytometry. Mean fluorescence intensity was used as the relative level of surface PD-L1 expression on cells (FIG. 1 and Table 6).
(§2) Also, cells were stained with PE-conjugated anti-human PD-L1 antibody to determine surface PD-L1 expression. Cell acquisition was performed on BD LSRFortessa X-20 (BD Biosciences). Data was analyzed using FlowJo software. IC50 values were calculated using Prism Software.

PD-L1 [2] = biological target: T1, PD-L1; assay: PD-L1 surface levels on HEK293T STING reporter cells, low PD-L1; type: cell-based; conditions: read-out: PD-L1 Internalization IC50 (nM), Low PD-L1, 20 hours
Protocol: as §1, §2

Row | Compound | IC50 (PD-L1 [1]) [nM] | IC50 (PD-L1 [2]) [nM]
1 | CCn1nc(C)cc1C(=O)Nc1nc2cc(C(N)=O)cc(OC)c2n1C/C=C/Cn1c(NC(=O)c2cc(C)nn2CC)nc2cc(C(N)=O)cc(OCCCNC(=O)CCNC(=O)OCc3ccc(NC(=O)[C@H](CCCNC(N)=O)NC(=O)[C@@H](NC(=O)CCCN4CCc5c(nc(C(=O)Nc6cccc(-c7cccc(NC(=O)c8nc9c(n8C)CCN(CCCC(=O)N[C@@H](CC(=O)O)C(=O)O)C9)c7Cl)c6Cl)n5C)C4)C(C)C)cc3)c21 [Example 3] | < 50 | > 1000
2 | CCn1nc(C)cc1C(=O)Nc1nc2cc(C(N)=O)cc(OC)c2n1C/C=C/Cn1c(NC(=O)c2cc(C)nn2CC)nc2cc(C(N)=O)cc(OCCCNC(=O)CCNC(=O)OCc3ccc(NC(=O)[C@H](CCCNC(N)=O)NC(=O)[C@@H](CC(=O)Cn4cc(CCNC(=O)[C@H](CC(=O)O)NC(=O)[C@H](CC(=O)O)NC(=O)[C@H](CCCNC(=N)N)NC(=O)[C@H](CC(=O)O)NC(=O)CCCN5CCc6c(nc(C(=O)Nc7cccc(-c8cccc(NC(=O)c9nc%10c(n9C)CCN(CCCC(=O)O)C%10)c8Cl)c7Cl)n6C)C5)nn4)C(C)C)cc3)c21 [Example 4] | 50 to 200 | > 1000
3 | CCn1nc(C)cc1C(=O)Nc1nc2cc(C(N)=O)cc(OC)c2n1C/C=C/Cn1c(NC(=O)c2cc(C)nn2CC)nc2cc(C(N)=O)cc(OCCCNC(=O)[C@H](CC(=O)O)NC(=O)[C@H](CC(=O)O)NC(=O)[C@H](CC(=O)O)NC(=O)[C@H](CC(=O)O)NC(=O)CCCN3CCc4c(nc(C(=O)Nc5cccc(-c6cccc(NC(=O)c7nc8c(n7C)CCN(CCCC(=O)O)C8)c6Cl)c5Cl)n4C)C3)c21 [Example 12] | < 50 | 
